{"source": "PubChem BioAssay AID504764 (Drosophila RNAi Screening Center, 2011)", "purpose": "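Genome-wide screen for regulators of Notch-driven gene expression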 (primary screen)", "system": "Drosophila Kc167 cells", "knock-down reagent": "long dsRNA against Drosophila genes", "timing": "about 5 days (4 days dsRNA, then 24 h after transfection)", "treatment": "transfection of constitutively active membrane-tethered Notch lacking the extracellular domain, read 24 h later", "measured": "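Firefly luciferase from an E(spl)m3 reporter with active Notch, plus control-promoter and uninduced reporter wells for normalisation; unnormalised counts, duplicate wells a and b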", "scale": "induced reporter light, run 1, well a and induced reporter light, run 1, well b: higher = more light from the Notch target reporter with active Notch; control promoter light, run 1, well a and control promoter light, run 1, well b: higher = more light from the viral control promoter (cell number, transfection, viability); uninduced reporter light, run 1, well a: higher = more light from the Notch target reporter without active Notch", "hit rule": "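Wells with low control signal or poorly matching duplicates excluded; duplicates averaged; per source plate, z beyond ±2 for induced/control log2 ratio or beyond ±1.8 for induced/uninduced marks a hit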", "meaning of the calls": "active = modifier hit (raised or lowered Notch signal); inactive = not a hit", "note": "In all, the deposit lists about 22,000 reagents; below is an unselected part of those with a known target gene and a result. Over the whole deposit, 403 (1.9%) were called active. 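Unnormalised raw counts per well; ratio z-scores behind the hit calls and whether each hit raises or lowers signal are not deposited.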 A plus sign joins genes that one reagent is predicted to hit. Not given: the amount of reagent."}
{"target gene":"CG13850","DRSC id":"DRSC14700","induced reporter light, run 1, well a":1.27e5,"induced reporter light, run 1, well b":1.42e5,"control promoter light, run 1, well a":1.96e5,"control promoter light, run 1, well b":2.34e5,"uninduced reporter light, run 1, well a":14430,"Outcome":"inactive"}
{"target gene":"CG31103","DRSC id":"DRSC22324","Outcome":"inactive"}
{"target gene":"Utx (Utx histone demethylase)","DRSC id":"DRSC02872","induced reporter light, run 1, well a":98835,"induced reporter light, run 1, well b":1.24e5,"control promoter light, run 1, well a":58935,"control promoter light, run 1, well b":77135,"uninduced reporter light, run 1, well a":12750,"Outcome":"inactive"}
{"target gene":"elav (embryonic lethal abnormal vision)","DRSC id":"DRSC18772","induced reporter light, run 1, well a":1.80e5,"induced reporter light, run 1, well b":1.83e5,"control promoter light, run 1, well a":2.12e5,"control promoter light, run 1, well b":2.04e5,"uninduced reporter light, run 1, well a":15080,"Outcome":"inactive"}
{"target gene":"Proc-R (Proctolin receptor)","DRSC id":"DRSC18410","induced reporter light, run 1, well a":1.51e5,"induced reporter light, run 1, well b":1.56e5,"control promoter light, run 1, well a":3.75e5,"control promoter light, run 1, well b":3.15e5,"uninduced reporter light, run 1, well a":12340,"Outcome":"inactive"}
{"target gene":"mRpL55 (mitochondrial ribosomal protein L55)","DRSC id":"DRSC14764","induced reporter light, run 1, well a":1.43e5,"induced reporter light, run 1, well b":1.28e5,"control promoter light, run 1, well a":1.90e5,"control promoter light, run 1, well b":1.91e5,"uninduced reporter light, run 1, well a":11205,"Outcome":"inactive"}
{"target gene":"Rpe (Ribulose-5-phosphate-3-epimerase)","DRSC id":"DRSC06407","induced reporter light, run 1, well a":2.14e5,"induced reporter light, run 1, well b":2.32e5,"control promoter light, run 1, well a":2.31e5,"control promoter light, run 1, well b":1.90e5,"uninduced reporter light, run 1, well a":16095,"Outcome":"inactive"}
{"target gene":"smid (smallminded)","DRSC id":"DRSC11398","induced reporter light, run 1, well a":1.45e5,"induced reporter light, run 1, well b":1.72e5,"control promoter light, run 1, well a":1.54e5,"control promoter light, run 1, well b":1.53e5,"uninduced reporter light, run 1, well a":7355,"Outcome":"inactive"}
{"target gene":"Mlp84B (Muscle LIM protein at 84B)","DRSC id":"DRSC12596","induced reporter light, run 1, well a":72785,"induced reporter light, run 1, well b":80930,"control promoter light, run 1, well a":77510,"control promoter light, run 1, well b":65565,"uninduced reporter light, run 1, well a":4515,"Outcome":"inactive"}
{"target gene":"CG7889","DRSC id":"DRSC20066","induced reporter light, run 1, well a":1.23e5,"induced reporter light, run 1, well b":1.24e5,"control promoter light, run 1, well a":82025,"control promoter light, run 1, well b":64200,"uninduced reporter light, run 1, well a":8430,"Outcome":"inactive"}
{"target gene":"CG32221","DRSC id":"DRSC09638","induced reporter light, run 1, well a":2.34e5,"induced reporter light, run 1, well b":3.08e5,"control promoter light, run 1, well a":3.80e5,"control promoter light, run 1, well b":3.40e5,"uninduced reporter light, run 1, well a":23570,"Outcome":"inactive"}

A run of entries from the list above, as a working copy:
{"target gene":"Utx (Utx histone demethylase)","DRSC id":"DRSC02872","induced reporter light, run 1, well a":98835,"induced reporter light, run 1, well b":1.24e5,"control promoter light, run 1, well a":58935,"control promoter light, run 1, well b":77135,"uninduced reporter light, run 1, well a":12750,"Outcome":"inactive"}
{"target gene":"elav (embryonic lethal abnormal vision)","DRSC id":"DRSC18772","induced reporter light, run 1, well a":1.80e5,"induced reporter light, run 1, well b":1.83e5,"control promoter light, run 1, well a":2.12e5,"control promoter light, run 1, well b":2.04e5,"uninduced reporter light, run 1, well a":15080,"Outcome":"inactive"}
{"target gene":"Proc-R (Proctolin receptor)","DRSC id":"DRSC18410","induced reporter light, run 1, well a":1.51e5,"induced reporter light, run 1, well b":1.56e5,"control promoter light, run 1, well a":3.75e5,"control promoter light, run 1, well b":3.15e5,"uninduced reporter light, run 1, well a":12340,"Outcome":"inactive"}

The listing continues:
{"target gene":"scro (scarecrow)","DRSC id":"DRSC17099","induced reporter light, run 1, well a":67360,"induced reporter light, run 1, well b":88475,"control promoter light, run 1, well a":1.20e5,"control promoter light, run 1, well b":1.11e5,"uninduced reporter light, run 1, well a":7120,"Outcome":"inactive"}
{"target gene":"scro (scarecrow)","DRSC id":"DRSC17102","induced reporter light, run 1, well a":1.51e5,"induced reporter light, run 1, well b":1.46e5,"control promoter light, run 1, well a":3.40e5,"control promoter light, run 1, well b":2.80e5,"uninduced reporter light, run 1, well a":9520,"Outcome":"inactive"}
{"target gene":"AANATL5 (Arylalkylamine N-acetyltransferase-like 5)","DRSC id":"DRSC05994","induced reporter light, run 1, well a":29980,"induced reporter light, run 1, well b":32375,"control promoter light, run 1, well a":39025,"control promoter light, run 1, well b":38605,"uninduced reporter light, run 1, well a":3642,"Outcome":"inactive"}
{"target gene":"Adgf-C (Adenosine deaminase-related growth factor C)","DRSC id":"DRSC16473","induced reporter light, run 1, well a":1.79e5,"induced reporter light, run 1, well b":2.26e5,"control promoter light, run 1, well a":2.00e5,"control promoter light, run 1, well b":2.02e5,"uninduced reporter light, run 1, well a":18700,"Outcome":"inactive"}
{"target gene":"zen2 (zerknullt-related)","DRSC id":"DRSC12633","induced reporter light, run 1, well a":94315,"induced reporter light, run 1, well b":81460,"control promoter light, run 1, well a":57365,"control promoter light, run 1, well b":76400,"uninduced reporter light, run 1, well a":7600,"Outcome":"inactive"}
{"target gene":"CG6287","DRSC id":"DRSC02947","induced reporter light, run 1, well a":2.20e5,"induced reporter light, run 1, well b":2.16e5,"control promoter light, run 1, well a":2.09e5,"control promoter light, run 1, well b":1.98e5,"uninduced reporter light, run 1, well a":17620,"Outcome":"inactive"}
{"target gene":"CG42304 + Snup","DRSC id":"DRSC08276","induced reporter light, run 1, well a":89005,"induced reporter light, run 1, well b":88215,"control promoter light, run 1, well a":1.39e5,"control promoter light, run 1, well b":1.79e5,"uninduced reporter light, run 1, well a":6245,"Outcome":"inactive"}
{"target gene":"CG42304 + Snup","DRSC id":"DRSC08277","induced reporter light, run 1, well a":17085,"induced reporter light, run 1, well b":20630,"control promoter light, run 1, well a":31820,"control promoter light, run 1, well b":32990,"uninduced reporter light, run 1, well a":2632,"Outcome":"inactive"}
{"target gene":"CG42304 + Snup","DRSC id":"DRSC22781","Outcome":"inactive"}
